The data set is described as follows: general procedure: peptide synthesis; CTC resin, Wang resin, or SASRIN resin; DIC or EDCI·HCl, or DIC and Oxyma; HATU/DIPEA for cyclisation. The note with it: whole synthesis.

From patent US12404299 (dated 2025) come the findings set out here.

Substance “(5S, 8S, 11S, 15R, 18S, 23aS, 29S, 35S, 37aS)-8,11-di((S)-sec-butyl)-29-(3-chloro-4-(trifluoromethyl)phenethyl)-35-(cyclohexylmethyl)-18-isopropyl-5,6,12,15,16,19,21,21,22,33,36-undecamethyltetracosahydro-2H-azeto[2,1-u]pyrrolo[2,1-i]” had an isolated mass of 4.1 mg. The substance also registered an isolated yield (scale of the general procedure usually 0.10 g resin) of 9%.
